Measured data: PubChem BioAssay AID1053208 (Peter MacCallum Cancer Centre, 2014)
In all, the deposit lists about 17,000 reagents; below is a part drawn at random. 788 of all reagents (4.7%) were called active. 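Calls rest on z-score classes alone; an extra cut-off of viability at most 70% of control was not applied to them.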 The numbers tell different reagents against one gene apart. Some reagents were tested in more than one well and are listed for each. Not all columns of the deposit are shown. Reagent sequences are not shown.

Test: 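Genes whose silencing cuts survival of bone tumour cells only with doxorubicin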 (primary screen)
Cells: mouse osteosarcoma cells, early-passage culture from an engineered mouse model of fibroblastic bone tumour
Reagents: siRNA pool against mouse genes, 40 nM
Timing: about 120 h (48 h before drug, then 72 h with drug)
Conditions: doxorubicin 100 nM for 72 h, roughly 30-40% inhibitory dose
Read-out: 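Luminescent ATP signal taken as viability with or without 100 nM doxorubicin for 72 h; mean of two wells set against non-targeting siRNA and turned into robust z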
Reading the numbers: viability z-score with doxorubicin: higher = more viable cells under doxorubicin; viability z-score without drug: higher = more viable cells with knock-down alone
Active means: 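Called active if knock-down leaves viability unchanged without drug (z within -2 to 2) but lowers it with doxorubicin (z at or under -2)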

{"gene": "Samt4", "reagent no.": 1, "combined z-score class": "no change with or without drug", "viability z-score with doxorubicin": -0.67, "viability z-score without drug": 1.01, "Call": "inactive"}
{"gene": "Raf1", "reagent no.": 1, "combined z-score class": "no change with or without drug", "viability z-score with doxorubicin": -1.46, "viability z-score without drug": -0.84, "Call": "inactive"}
{"gene": "Pcdh10", "reagent no.": 1, "combined z-score class": "no change with or without drug", "viability z-score with doxorubicin": 0, "viability z-score without drug": 0.51, "Call": "inactive"}
{"gene": "Sod1", "reagent no.": 1, "combined z-score class": "no change with or without drug", "viability z-score with doxorubicin": -1.01, "viability z-score without drug": -0.84, "Call": "inactive"}
{"gene": "BC011467", "reagent no.": 1, "combined z-score class": "no change with or without drug", "viability z-score with doxorubicin": 0.11, "viability z-score without drug": -0.34, "Call": "inactive"}
{"gene": "Pcdha11", "reagent no.": 1, "combined z-score class": "low cell count with doxorubicin only", "viability z-score with doxorubicin": -2.25, "viability z-score without drug": 0.17, "Call": "active"}
{"gene": "Colec12", "reagent no.": 1, "combined z-score class": "high cell count without drug only", "viability z-score with doxorubicin": 1.35, "viability z-score without drug": 2.02, "Call": "inactive"}
{"gene": "1110004F10Rik", "reagent no.": 1, "combined z-score class": "no change with or without drug", "viability z-score with doxorubicin": -1.12, "viability z-score without drug": 0.34, "Call": "inactive"}
{"gene": "Tnfaip8l1", "reagent no.": 1, "combined z-score class": "no change with or without drug", "viability z-score with doxorubicin": 1.35, "viability z-score without drug": 0.67, "Call": "inactive"}
{"gene": "Gbp7", "reagent no.": 1, "combined z-score class": "no change with or without drug", "viability z-score with doxorubicin": 0.9, "viability z-score without drug": 0, "Call": "inactive"}
{"gene": "Spry4", "reagent no.": 1, "combined z-score class": "no change with or without drug", "viability z-score with doxorubicin": 1.46, "viability z-score without drug": 0.84, "Call": "inactive"}
{"gene": "Usp54", "reagent no.": 1, "combined z-score class": "no change with or without drug", "viability z-score with doxorubicin": 1.46, "viability z-score without drug": -0.51, "Call": "inactive"}
{"gene": "Usp54", "reagent no.": 2, "combined z-score class": "no change with or without drug", "viability z-score with doxorubicin": -0.67, "viability z-score without drug": 0.84, "Call": "inactive"}
{"gene": "Fkbp4", "reagent no.": 1, "combined z-score class": "no change with or without drug", "viability z-score with doxorubicin": -1.46, "viability z-score without drug": -0.67, "Call": "inactive"}
{"gene": "Drd2", "reagent no.": 1, "combined z-score class": "no change with or without drug", "viability z-score with doxorubicin": -0.67, "viability z-score without drug": -0.67, "Call": "inactive"}
{"gene": "Abtb1", "reagent no.": 1, "combined z-score class": "no change with or without drug", "viability z-score with doxorubicin": 0.9, "viability z-score without drug": 1.52, "Call": "inactive"}
{"gene": "Or8g21", "reagent no.": 1, "combined z-score class": "low cell count with doxorubicin only", "viability z-score with doxorubicin": -2.25, "viability z-score without drug": -1.01, "Call": "active"}
{"gene": "Ndufa8", "reagent no.": 1, "combined z-score class": "low cell count with and without drug", "viability z-score with doxorubicin": -3.37, "viability z-score without drug": -2.19, "Call": "inactive"}
{"gene": "Nfkbib", "reagent no.": 1, "combined z-score class": "no change with or without drug", "viability z-score with doxorubicin": 1.69, "viability z-score without drug": 0.17, "Call": "inactive"}
{"gene": "As3mt", "reagent no.": 1, "combined z-score class": "high cell count without drug only", "viability z-score with doxorubicin": 0.22, "viability z-score without drug": 2.19, "Call": "inactive"}
{"gene": "Hnrnpc", "reagent no.": 1, "combined z-score class": "no change with or without drug", "viability z-score with doxorubicin": -1.57, "viability z-score without drug": 0.84, "Call": "inactive"}
{"gene": "Fan1", "reagent no.": 1, "combined z-score class": "no change with or without drug", "viability z-score with doxorubicin": -0.67, "viability z-score without drug": -0.84, "Call": "inactive"}
{"gene": "Agk", "reagent no.": 1, "combined z-score class": "no change with or without drug", "viability z-score with doxorubicin": -1.35, "viability z-score without drug": 0.17, "Call": "inactive"}
{"gene": "Agk", "reagent no.": 1, "combined z-score class": "no change with or without drug", "viability z-score with doxorubicin": -1.35, "viability z-score without drug": -0.67, "Call": "inactive"}
{"gene": "Mrpl57", "reagent no.": 1, "combined z-score class": "no change with or without drug", "viability z-score with doxorubicin": 0, "viability z-score without drug": -1.18, "Call": "inactive"}
{"gene": "Grb7", "reagent no.": 1, "combined z-score class": "no change with or without drug", "viability z-score with doxorubicin": 0.11, "viability z-score without drug": 0, "Call": "inactive"}
{"gene": "Trpv5", "reagent no.": 1, "combined z-score class": "no change with or without drug", "viability z-score with doxorubicin": -1.12, "viability z-score without drug": -0.17, "Call": "inactive"}
{"gene": "Hrh2", "reagent no.": 1, "combined z-score class": "no change with or without drug", "viability z-score with doxorubicin": 0.9, "viability z-score without drug": -0.51, "Call": "inactive"}

Ordered by “viability z-score with doxorubicin” (highest first): some entries from above.
{"gene": "Usp54", "reagent no.": 2, "combined z-score class": "no change with or without drug", "viability z-score with doxorubicin": -0.67, "viability z-score without drug": 0.84, "Call": "inactive"}
{"gene": "Fkbp4", "reagent no.": 1, "combined z-score class": "no change with or without drug", "viability z-score with doxorubicin": -1.46, "viability z-score without drug": -0.67, "Call": "inactive"}
